Among the data in patent US6979673 are binding values, retold here.

Chains of the proteins cited; added tags and fusions are not shown. Lines headed by an entry give the natural chain unless they say otherwise; changes in a name come on top. Residues count along the entry.
UniProt P01236, residues 29-227: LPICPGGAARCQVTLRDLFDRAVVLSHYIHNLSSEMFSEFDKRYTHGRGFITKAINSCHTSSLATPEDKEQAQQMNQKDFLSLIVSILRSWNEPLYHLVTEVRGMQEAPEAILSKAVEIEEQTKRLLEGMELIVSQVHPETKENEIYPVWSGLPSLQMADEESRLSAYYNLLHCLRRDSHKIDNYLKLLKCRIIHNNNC
UniProt P23284: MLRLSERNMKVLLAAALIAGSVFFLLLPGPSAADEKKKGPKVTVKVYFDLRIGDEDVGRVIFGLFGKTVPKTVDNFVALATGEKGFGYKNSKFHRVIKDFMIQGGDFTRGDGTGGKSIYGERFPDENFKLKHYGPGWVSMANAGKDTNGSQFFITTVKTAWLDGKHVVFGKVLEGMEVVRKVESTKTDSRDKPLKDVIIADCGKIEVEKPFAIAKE

The target in assay [1] is PRL (human prolactin, untagged or form not specified: serum PRL; PRL added to cell cultures) (human) (UniProt P01236). In words: pull-down of serum PRL on sepharose-conjugated CypB.
For assay [2] the target is unchanged. In words: co-immunoprecipitation of nuclear complexes, T47D cells.
The target is the same in assay [3]. In words: co-immunoprecipitation from human serum.

No constants are given. Whether binding was seen depends on the method and setting. In cells and extracts the contact can be indirect. Some results given as binding are weak or reduced against the parent protein; the word gives no strength.

Turning to “His-tagged CypB (cyclophilin B, recombinant, V5/His-tagged, from Drosophila S2 cells) (from UniProt P23284 34-216) (enzyme)”, the binding entry in assay [1] and in assay [2] was “binds” throughout.
Consider “CypB from human serum (endogenous) (from UniProt P23284 34-216) (enzyme)”, for which the binding entry in assay [3] is “binds”.
